{
  "source": "patent US10335453B2",
  "about": "“Compositions and methods for improving sexual function” (Nymox Corporation, priority 2017, dated 2019)",
  "assay_type_in_all_cases": "in vivo, human",
  "key": {"BPH patients [1]": {"system": "BPH patients", "experiment": "Example 3: SFQ mean change, treatment naïve BPH patients, two NX-1207 injections vs PBS followed by one NX-1207 injection", "conditions": "for Mean change from baseline: SFQ score, 6 months post second treatment", "procedure": "One hundred and fifty six (156) BPH patients with no prior history of any conventional approved medical or surgical treatment (“treatment naïve”) for BPH were given an intraprostatic injection of either (a) NX-1207 (2.5 mg) in phosphate buffered saline pH 7.2 (“PBS”) (n=88) or (b) PBS alone (n=68), under double-blind conditions by a urologist in an office setting under ultrasound guidance. All patients were followed for a period of 12.6-51.1 months and then treated by a second open-label injection of NX-1207 (2.5 mg) in PBS. Prior to their treatment each patient's sexual function was assessed by history and each patient completed a Sexual Function Questionnaire (“SFQ”) which scored from 0 to 12 points the degree to which the patient considered they had any problems with 1. lack of sex drive, 2. ability to get and keep an erection, and 3. problems with ejaculation, (Problem Assessment Scale of the Brief Male Sexual Function Inventory). A higher score indicates improvement with a better sexual functional self-assessment and less of a sexual problem; a lower score indicates worsening with more of a sexual problem. Many approved BPH medications and treatments are associated with lower scores. The SFQ was subsequently re-administered 6 months post second treatment. The difference from baseline score in the SFQ was compared in NX-1207 patients who received 2 injections of NX-1207 vs results in patients who received PBS alone followed by 1 injection of NX-1207."}, "BPH patients [2]": {"system": "BPH patients", "experiment": "Example 5: SFQ long-term mean change, treatment naive BPH patients, one injection, 12.6-51.1 months", "procedure": "One hundred and fifty (150) BPH patients with no prior history of any conventional approved medical or surgical treatment (“treatment naive”) for BPH were given an intraprostatic injection of either (a) (2.5 mg) NX-1207 (2.5 mg) in phosphate buffered saline pH 7.2 (“PBS”) (n=83) or (b) PBS alone (n=67) under double-blind conditions by a urologist in an office setting under ultrasound guidance. These patients were followed for 12.6-51.1 months after treatment and their progress was monitored by urological investigations. Prior to their treatment each patient's sexual function was assessed by history and each patient completed a Sexual Function Questionnaire (“SFQ”) which scored from 0 to 12 points the degree to which the patient considered they had any problems with 1. lack of sex drive, 2. ability to get and keep an erection, and 3. problems with ejaculation; (Problem Assessment Scale of the Brief Male Sexual Function Inventory). A higher score indicates improvement with a better sexual functional self-assessment and less of a sexual problem; a lower score indicates worsening with more of a sexual problem. Many approved BPH medications and treatments are associated with lower scores. The SFQ was subsequently re-administered 12.6-51.1 months post-treatment."}, "BPH patients [3]": {"system": "BPH patients", "experiment": "Example 7: proportion of BPH patients with SFQ<=3, NX-1207 in treatment naive vs previously treated patients", "procedure": "Three hundred and twenty four (324) BPH patients were given an intraprostatic injection of either (a) NX-1207 (2.5 mg) in phosphate buffered saline pH 7.2 (“PBS”) (n=189) or (b) PBS alone (n=135), under double-blind conditions by a urologist in an office setting under ultrasound guidance. These patients were followed for 12.6-51.1 months after treatment and their progress was monitored by urological investigations. Prior to their treatment each patient's sexual function was assessed by history and each patient completed a Sexual Function Questionnaire (“SFQ”) which scored from 0 to 12 points the degree to which the patient considered they had any problems with 1. lack of sex drive, 2. ability to get and keep an erection, and 3. problems with ejaculation; (Problem Assessment Scale of the Brief Male Sexual Function Inventory). A higher score indicates improvement with a better sexual functional self-assessment and less of a sexual problem; a lower score indicates worsening with more of a sexual problem. Many approved BPH medications and treatments are associated with lower scores. Eighty nine (89) BPH patients in this group had baseline pre-treatment SFQ scores<=3 points indicating significant sexual problems. The SFQ was subsequently re-administered 12.6-51.1 months post-treatment. The proportions of patients with SFQ<=3 points at pre-treatment baseline and at 12.6-51.1 months post-treatment were compared in NX-1207 patients vs results in patients who received PBS alone."}},
  "note": "Not every detail of the peptide structures is certain; ends, links or a residue may be inferred. Peptide text beside a SMILES is read from it.",
  "data": [
    {"smiles": "CC[C@H](C)[C@H](N)C(=O)N[C@@H](CC(=O)O)C(=O)N[C@@H](CCC(N)=O)C(=O)N[C@@H](CCC(N)=O)C(=O)N[C@H](C(=O)N[C@@H](CC(C)C)C(=O)N[C@@H](CO)C(=O)N[C@@H](CCCNC(=N)N)C(=O)N[C@H](C(=O)N[C@@H](CCCCN)C(=O)N[C@@H](CC(C)C)C(=O)N[C@@H](CCC(=O)O)C(=O)N[C@H](C(=O)N[C@@H](CCCCN)C(=O)N[C@@H](CCCNC(=N)N)C(=O)N[C@@H](CS)C(=O)N[C@@H](CC(C)C)C(=O)O)[C@@H](C)CC)[C@@H](C)CC)C(C)C", "note": "[SEQ ID NO: 66, IDQQVLSRIKLEIKRCL] (H-IDQQVLSRIKLEIKRCL-OH)", "values": [
      {"measurement": "improving sexual function as measured by the SFQ, two treatments compared to placebo followed by one treatment", "setting": "BPH patients [1]; 1.76 vs 0.31", "result": "about 82%"},
      {"measurement": "Mean change from baseline", "setting": "BPH patients [1]; PBS alone followed by one injection of NX-1207 2.5 mg, n=68", "result": 0.31},
      {"measurement": "Mean change from baseline", "setting": "BPH patients [1]; two injections of NX-1207 2.5 mg, 12.6-51.1 months apart, n=88, p < 0.0001 vs baseline, p < 0.02 vs PBS group", "result": 1.76},
      {"measurement": "improving sexual function as measured by the SFQ, compared to placebo", "setting": "BPH patients [2]; 0.69 vs −0.91 placebo", "result": "about 230%"},
      {"measurement": "Mean change from baseline", "setting": "BPH patients [2]; SFQ score, 12.6-51.1 months post-treatment, one injection 2.5 mg, n=83, p < 0.004", "result": 0.69},
      {"measurement": "improvement in treatment naïve patients compared to patients who had received prior treatment for BPH", "setting": "BPH patients [3]; 30% improvement vs 9.1% decrease", "result": "about 130%"},
      {"measurement": "No. of patients with severe sexual problems (SFQ ≤ 3) at T = 1 yr", "setting": "BPH patients [3]; patients with prior BPH treatment, 33 at T = 0", "result": 36},
      {"measurement": "% Increase or decrease in number of patients with severe sexual problems (SFQ ≤ 3) at T = 1 year", "setting": "BPH patients [3]; patients with prior BPH treatment, increase, listed as NTP peptide", "result": 9.1, "unit": "%"},
      {"measurement": "No. of patients with severe sexual problems (SFQ ≤ 3) at T = 1 yr", "setting": "BPH patients [3]; treatment naive patients, 23 at T = 0, p < 0.001 vs previously treated BPH patients administered NX-1207", "result": "16 (*)"},
      {"measurement": "% Increase or decrease in number of patients with severe sexual problems (SFQ ≤ 3) at T = 1 year", "setting": "BPH patients [3]; treatment naive patients, decrease, p < 0.001 vs previously treated", "result": "30% (*)"},
      {"measurement": "% Increase or decrease in number of patients with severe sexual problems (SFQ ≤ 3) at T = 1 year", "setting": "BPH patients [3]; treatment naive patients, decrease, p < 0.001 vs previously treated, listed as NTP peptide", "result": "about 30%"}
    ]}
  ]
}
